Data on 1 substance can be found in PMC12708648 (2025).

By UniProt entry, the sequences of proteins in these tests, tags left out.
UniProt P68559: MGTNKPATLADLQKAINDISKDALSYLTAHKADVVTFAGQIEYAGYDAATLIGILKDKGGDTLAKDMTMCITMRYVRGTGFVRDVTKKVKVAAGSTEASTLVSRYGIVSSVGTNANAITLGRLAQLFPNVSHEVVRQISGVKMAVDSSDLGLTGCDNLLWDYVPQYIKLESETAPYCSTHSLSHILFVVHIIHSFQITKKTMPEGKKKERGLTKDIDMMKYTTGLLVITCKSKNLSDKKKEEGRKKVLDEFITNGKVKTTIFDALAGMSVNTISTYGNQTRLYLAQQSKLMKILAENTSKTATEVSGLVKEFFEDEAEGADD

No constants are given. Whether binding was seen depends on the method and setting. In cells and extracts the contact can be indirect. Sequences can lack the tags named with a protein.

In one test the target is T1, AtLYK4-FLAG-HA (UniProt O64825).
T1 sequence: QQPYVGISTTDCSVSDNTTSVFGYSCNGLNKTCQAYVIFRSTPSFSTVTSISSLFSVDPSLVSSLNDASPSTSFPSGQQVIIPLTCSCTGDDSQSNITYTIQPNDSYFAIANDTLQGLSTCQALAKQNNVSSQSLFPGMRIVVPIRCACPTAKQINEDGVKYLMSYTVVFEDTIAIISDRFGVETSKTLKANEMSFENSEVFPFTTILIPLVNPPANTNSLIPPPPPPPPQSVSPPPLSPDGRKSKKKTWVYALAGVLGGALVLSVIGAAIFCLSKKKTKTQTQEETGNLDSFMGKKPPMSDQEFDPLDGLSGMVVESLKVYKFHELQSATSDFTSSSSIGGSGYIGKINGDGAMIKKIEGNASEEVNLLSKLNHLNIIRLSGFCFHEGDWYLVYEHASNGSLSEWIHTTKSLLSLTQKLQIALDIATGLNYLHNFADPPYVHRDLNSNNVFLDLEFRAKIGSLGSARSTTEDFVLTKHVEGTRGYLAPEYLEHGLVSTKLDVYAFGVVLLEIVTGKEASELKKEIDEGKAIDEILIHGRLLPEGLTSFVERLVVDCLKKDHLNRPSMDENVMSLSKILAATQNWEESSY
Kind of test: co-IP; anti-HA beads on total protein of N. benthamiana leaves transiently co-expressing a FLAG-HA-tagged protein with CP; 4 °C, 3 h.

Test [1] has as its target T2, AtLYK5-FLAG-HA (Arabidopsis) (UniProt O22808).
T2 sequence: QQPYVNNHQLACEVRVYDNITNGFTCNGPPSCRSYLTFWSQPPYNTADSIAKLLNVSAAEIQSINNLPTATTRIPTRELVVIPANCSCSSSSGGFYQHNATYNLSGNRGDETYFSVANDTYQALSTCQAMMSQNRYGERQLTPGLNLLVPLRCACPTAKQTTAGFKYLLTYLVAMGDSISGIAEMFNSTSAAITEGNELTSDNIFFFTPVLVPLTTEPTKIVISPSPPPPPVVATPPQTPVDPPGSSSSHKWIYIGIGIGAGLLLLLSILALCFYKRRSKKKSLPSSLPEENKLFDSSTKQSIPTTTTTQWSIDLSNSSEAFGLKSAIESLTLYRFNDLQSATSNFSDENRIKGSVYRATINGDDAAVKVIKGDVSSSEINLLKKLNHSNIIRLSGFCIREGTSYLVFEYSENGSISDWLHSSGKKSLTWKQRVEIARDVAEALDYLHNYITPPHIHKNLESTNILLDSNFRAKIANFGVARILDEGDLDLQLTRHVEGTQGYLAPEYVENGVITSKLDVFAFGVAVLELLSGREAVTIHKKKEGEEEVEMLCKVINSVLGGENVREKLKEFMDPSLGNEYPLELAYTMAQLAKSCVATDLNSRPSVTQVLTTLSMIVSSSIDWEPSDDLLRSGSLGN
Described as above.

On to “RSV coat protein (CP), untagged (from UniProt P68559 1-322)”, for which the binding entry (in the test with AtLYK4-FLAG-HA; in test [1]) was “no binding” each time.
